# Assay results from PMC2740868.
# Amino acid sequences for entries named in this document (tags omitted). A change or cut given only in a name is not applied to a line headed by its entry.
# UniProt P84022: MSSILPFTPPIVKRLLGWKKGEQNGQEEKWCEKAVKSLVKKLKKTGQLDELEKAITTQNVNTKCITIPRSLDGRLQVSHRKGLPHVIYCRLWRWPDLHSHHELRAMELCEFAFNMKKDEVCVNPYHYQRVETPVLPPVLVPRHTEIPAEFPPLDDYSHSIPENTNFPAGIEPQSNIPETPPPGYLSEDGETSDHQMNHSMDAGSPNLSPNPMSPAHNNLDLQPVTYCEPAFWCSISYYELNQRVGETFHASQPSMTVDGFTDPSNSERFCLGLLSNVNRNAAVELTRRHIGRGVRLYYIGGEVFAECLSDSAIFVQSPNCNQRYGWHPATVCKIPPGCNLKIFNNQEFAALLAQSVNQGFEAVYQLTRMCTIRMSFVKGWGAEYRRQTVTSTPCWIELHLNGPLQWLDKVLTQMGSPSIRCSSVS
# These are yes or no findings as the source states them, for the method shown. In cells and extracts the contact can be indirect. Some binding calls cover weakened binding; strength is not graded here. For part of these data: Sequences can lack the tags named with a protein.
# What was measured:
# [1] = target: T1, GST-BRCA1 (298–436aa) (human) (UniProt P38398); experiment: pull-down; 10 µg bacterially-purified GST-BRCA1 protein fragments with total lysates of HEK293T cells transfected with Flag-Smad3 constructs; only the target purified
# T1 sequence: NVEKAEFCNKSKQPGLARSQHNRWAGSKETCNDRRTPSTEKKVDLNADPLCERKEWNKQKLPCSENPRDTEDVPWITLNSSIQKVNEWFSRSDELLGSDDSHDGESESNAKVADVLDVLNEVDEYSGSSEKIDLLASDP
# Flag-Smad3 = Flag-Smad3 (UniProt P84022); experiment: co-IP; HEK293T cells co-transfected with HA-BRCA1 constructs and Flag-Smad3; total cell lysates, immunoprecipitation and Western blotting with anti-Flag and anti-HA monoclonal antibodies
substance,measurement,setting,value
Flag-Smad3 (from UniProt P84022 1-425),binding,[1],binds
"Flag-Smad3C (MH2 domain, from 207 to 426aa) (from UniProt P84022 207-425) (domain or fragment)",binding,[1],binds
HA-BRCA1 (1–683aa) (from UniProt P38398 1-683) (domain or fragment),binding,Flag-Smad3,binds
